Data published in PubChem BioAssay AID624297 (National Center for Advancing Translational Sciences (NCATS), 2012).
About 6,200 (1.8%) of roughly 340,000 compounds were called active. Inconclusive means that the source gave no clear call. Such entries were picked first, then a sample of the others. Calls come from the whole dose curve; as a rule, active = well fitted activation curve with a large enough effect; inconclusive = small, poorly fitted or top-dose-only effect; inactive = no such curve, though single readings can be large or run the other way. Potencies beside an inconclusive call are fits to weak or partial responses and may not hold up.

Experiment: A quantitative high throughput screen for small molecules that induce DNA re-replication in SW480 colon adenocarcinoma cells. For re-replication activation: % of control where 0% means no effect. Note: nearly all actives have a fitted effect of over 55% in size.
Details: Hoechst DNA content imaging, 48 h; re-replication activation: at 46.1 µM (top of the series) unless noted
Procedure, shortened: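 DNA re-replication was detected as more nuclei of elevated Hoechst intensity after 48 hr exposure to compound (23 nL pinned per well of 250 cells).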
Potency is the fitted concentration of half-maximal effect.

| SMILES | Potency | re-replication activation |
| --- | --- | --- |
| Cc1ccc(C)c(NC(=O)CN(C)C(=O)C2COc3ccccc3O2)c1 (stereo not given) | inconclusive: 1.84 µM [activator, partial curve, poor fit] |  |
| COCCn1c(C)cc(C(=O)CN2C(=O)NC3(CCCCCCC3)C2=O)c1C | inconclusive: 20.6 µM [activator, single point] |  |
| COc1ccc(/C=N/NC(=O)c2cccc3ccccc23)c(OC)c1OC | inactive |  |
| Cc1ccc(O)c(C2=NNC(c3ccc(Cl)cc3)C2)c1 (stereo not given) | inconclusive: 16.4 µM [activator, single point] |  |
| Cc1nnc(C)n1/N=C/c1cccn1C | inconclusive: 23.1 µM [activator, single point] |  |
| O=C(CN1C(=O)NC2(CCCc3ccccc32)C1=O)c1ccc(Br)cc1 (stereo not given) | inconclusive: 16.4 µM [activator, single point] |  |
| COc1ccc(/C=C2\SC(=O)N(CCC(=O)N3CCCCC3CCO)C2=O)cc1 (stereo not given) | inactive |  |
| Cc1cccc(N(CC(=O)Nc2cccnc2)S(C)(=O)=O)c1 | inactive |  |
| COc1ccc(Br)cc1CN1CCN(C(=O)c2ccc(F)cc2)CC1 | inactive |  |
| Cc1ccc(S(=O)(=O)CCC(=O)Nc2nccs2)cc1 | inactive |  |
| CCOP(=O)(/C(C#N)=C(/O)c1ccccc1)c1ccccc1 (stereo not given) | inconclusive: 1.3 µM [activator, full curve, poor fit] |  |
| COc1ccc(C2c3ccc4ccccc4c3Oc3ncn(CCCO)c(=N)c32)cc1 (stereo not given) | inconclusive: 18.4 µM [activator, single point] |  |
| CC(=O)Oc1ccc(OC(C)=O)c(SCCCCCN2CCOCC2)c1 | inconclusive: 29.1 µM [activator, single point] |  |
| CCOc1cc(CNCCCN2CCOCC2)cc(Br)c1OCc1ccccc1Cl | inconclusive: 16.4 µM [activator, single point] |  |
| CN1CCN(C(=O)c2ccc3c(c2)NC(=O)/C(=C/c2ccccc2)S3)CC1 | inconclusive: 29.1 µM [activator, single point] |  |
| CCC(N=c1cc(-c2ccc(OC)c(OC)c2)oc2ccc(C)cc12)C(=O)O (stereo not given) | inconclusive: 2.91 µM [activator, single point] |  |
| CCN(CC)S(=O)(=O)c1ccc(/C=C/C(=O)OCC(=O)NCc2cccs2)cc1 | inactive |  |
| CCCCN(CCCNC(=O)Cn1nc(CC)n2c(cc3sc(C)cc32)c1=O)Cc1ccccc1 | inconclusive: 18.4 µM [activator, single point] |  |
| COc1ccc(-c2cc(C(=O)OCC(=O)N(C)C)c3ccccc3n2)cc1 | inactive |  |
| O=C(/C=C/c1ccccc1)c1ccccn1 | inconclusive: 29.1 µM [activator, single point] |  |
| Cn1nc(C(F)(F)F)c(-c2ccc(F)cc2)c1NC(=O)c1cccnc1 | inconclusive: 5.8 µM [activator, single point] |  |
| CS(=O)(=O)Nc1cccc(-c2cnc3ccccc3n2)c1 | inconclusive: 6.51 µM [activator, partial curve, poor fit] |  |
| C=C[C@@H]1c2cc(C)ccc2N(S(=O)(=O)c2ccc(C)cc2)[C@H](c2ccccc2)C1(C#N)S(=O)(=O)c1ccccc1 (stereo not given in full) | inactive |  |
| CCCCN1C(=O)C(O)(CC(=O)c2ccco2)c2cc(Br)ccc21 (stereo not given) | active: 14.6 µM |  |

| SMILES | Potency | re-replication activation |
| --- | --- | --- |
| CCOC(=O)C1CCCN(C2CC(=O)N(c3ccc(N4C(=O)CC(N5CCCC(C(=O)OCC)C5)C4=O)cc3)C2=O)C1 (stereo not given) | inconclusive: 29.1 µM [activator, single point] |  |
| Cc1ccccc1Cn1ccc(-c2ccc(Cl)cc2)c(C#N)c1=O | inactive |  |
| Cc1ccc2[nH]cc(/C=C/c3cc[n+](C)cc3)c2c1 | active: 8.2 µM |  |
| CC1=C(C(=O)Nc2ccccc2C(=O)NC2CCCCC2C)SCCO1 (stereo not given) | inconclusive: 2.91 µM [activator, full curve, poor fit] |  |
| CCOC(=O)CSc1nnc(CNC(=O)c2ccc(S(=O)(=O)N3CCOCC3)cc2)n1C | inconclusive: 3.26 µM [activator, partial curve, poor fit] |  |
| O=C(Nc1ccc([N+](=O)[O-])cc1)N1CCCCCC1 | inactive |  |
| COC(=O)CCCC(=O)NCC1(N(C)Cc2ccccc2)Cc2ccccc2C1 | inconclusive: 16.4 µM [activator, single point] |  |
| O=C(Nc1ccccc1C(=O)N1CCN(c2cccc(Cl)c2)CC1)C1=CSCCO1 | inconclusive: 15.8 µM [activator, single point] |  |
| CCn1nc(NC(=O)c2ccco2)c2cc3ccc(C)cc3nc21 | active: 9.2 µM |  |
| COc1ccc(N(C(=O)c2ccccc2C)S(=O)(=O)c2cccs2)cc1 | active: 2.59 µM |  |
| Cc1ccc(S(=O)(=O)N2CCCCC2)cc1C(=O)N(C)CC(=O)Nc1ccc(Cl)c(C(F)(F)F)c1 | inconclusive: 29.1 µM [activator, single point] |  |
| O=S(=O)(Cc1ccccc1Cl)N1CCCC1 | inconclusive: 16.4 µM [activator, single point] |  |
| CCOc1cc(C(=S)N2CCOCC2)ccc1OS(=O)(=O)c1ccc(Br)cc1 | inconclusive: 29.1 µM [activator, single point] |  |
| Fc1cccc(/C=N/Nc2nc3ccccc3[nH]2)c1 | inactive |  |
| COc1cccc(/C=N/NC(=O)CN(CCc2ccccc2)S(=O)(=O)c2ccc(NC(C)=O)cc2)c1 | inconclusive: 2.06 µM [activator, single point] |  |
| CC(C)Sc1nc(N2CCOCC2)c2c(c1C#N)CC(C)(C)N(C)C2 | inconclusive: 25.9 µM [activator, single point] |  |
| O=C(CN1CCCCC1CO)c1ccc(OC(F)F)cc1 (stereo not given) | inconclusive: 32.6 µM [activator, single point] |  |
| Cc1ccc(NC(=O)C2CCN(c3ncnc4c3nc3n4CCCCC3)CC2)cc1Cl | inconclusive: 29.1 µM [activator, single point] |  |
| CCOC(=O)[C@@H]1[C@H]2COc3cc(OC)ccc3[C@@H]2N2C(=O)N(c3ccc(Br)cc3)C(=O)[C@@]12C | inconclusive: 6.51 µM [activator, partial curve, poor fit] |  |
| Cc1ccc(NNC(=O)c2c(C)noc2C)cc1Cl | inactive |  |
| CC(C)(C)OC(=O)n1cccc1/C=C1\c2ccccc2C(=O)N1c1ccccc1 | inconclusive: 29.1 µM [activator, single point] |  |
| CCn1c(CSc2nc3ccccc3s2)nc2ccccc21 | inconclusive: 23.1 µM [activator, single point] |  |
| Cc1ccccc1N(C(=O)Cn1nnc(-c2cccs2)n1)C(C(=O)NCCC(C)C)c1ccco1 (stereo not given) | inconclusive: 9.2 µM [activator, partial curve] |  |
| CC(C)c1ccc(OCc2ccc(C(=O)O)o2)cc1 | inactive |  |

A few values from above.
For Potency, `CCOC(=O)CSc1nnc(CNC(=O)c2ccc(S(=O)(=O)N3CCOCC3)cc2)n1C` has inconclusive: 3.26 µM [activator, partial curve, poor fit]
For Potency, `Fc1cccc(/C=N/Nc2nc3ccccc3[nH]2)c1` has inactive
For Potency, `Cc1ccc(S(=O)(=O)CCC(=O)Nc2nccs2)cc1` has inactive
For Potency, `CCN(CC)S(=O)(=O)c1ccc(/C=C/C(=O)OCC(=O)NCc2cccs2)cc1` has inactive

Continued.

| SMILES | Potency | re-replication activation |
| --- | --- | --- |
| O=C(O)c1ccc(N/N=C/c2cn(Cc3ccccc3F)c3ccccc23)cc1 | inconclusive: 23.1 µM [activator, single point] |  |
| O=c1oc(CCO)cc2ccccc12 | inactive |  |
| COc1ccccc1NC1=C(Cl)C(=O)OC1OC(=O)c1ccco1 (stereo not given) | inconclusive: 25.9 µM [activator, single point] |  |
| Oc1ccccc1C1CCCCC1c1ccccc1 (stereo not given) | inactive |  |
| Cc1ccc2nc(N(CCCN(C)C)C(=O)c3ccc4ncsc4c3)sc2c1 | inconclusive: 25.9 µM [activator, single point] |  |
| Cc1ccc(NC(=O)CSC2=NCCN2)cc1 | inactive |  |
| CC(=O)C1(C)CCC2C3C=C(C)C4=CC(=O)CCC4(C)C3CCC21C (stereo not given) | inactive |  |
| CCOC(=O)COc1c(Cl)cc(C2NC(=S)NC(c3ccccc3)=C2C(C)=O)cc1OCC (stereo not given) | inactive |  |
| CC(=O)c1ccccc1OCCOCCOc1ccccc1C(C)=O | inconclusive: 7.31 µM [activator, partial curve, poor fit] |  |
| CN(C)CCN(C(=O)c1ccc(C(=O)c2ccccc2)cc1)c1nc2cc3c(cc2s1)OCCO3 | inactive |  |
| Cc1cc(C)cc(NC(=O)Cn2c(=O)oc3cc(S(=O)(=O)N4CCC(C)CC4)ccc32)c1 | inconclusive: 29.1 µM [activator, single point] |  |
| C=CC[C@@H](CC(=O)N[C@H](CO)Cc1ccccc1)C(=O)NCCOC(=O)[C@@H](CC=C)CC(=O)OC(C)(C)C |  | inactive: -28.1% [at 9.22 µM] |
| OC(CNCc1ccccc1)Cn1ccc2ccccc21 (stereo not given) | inconclusive: 23.1 µM [activator, single point] |  |
| CCOC(=O)C1=C(C(=O)OCC)N(Cc2ccccc2)CCC1=O | inactive |  |
| Cc1ccccc1CNCCCSc1ncccn1 | inactive |  |
| O=C(CSc1nnc2c(Cl)cc(C(F)(F)F)cn12)NCc1ccc(F)cc1 | inconclusive: 2.59 µM [activator, single point] |  |
| Cn1c(=S)c2[nH]c(SCC3CCCO3)nc2n(C)c1=O (stereo not given) | inconclusive: 18.4 µM [activator, partial curve, poor fit] |  |
| O=C(COC(=O)c1ccc(NS(=O)(=O)c2cccs2)cc1)NCC1CCCO1 (stereo not given) | inconclusive: 32.6 µM [activator, partial curve, poor fit] |  |
| COCCCNC(=O)C(CC(N)=O)NC(=O)OCc1ccccc1 (stereo not given) | inconclusive: 0.231 µM [activator, full curve] |  |
| C=C1CCC[C@]2(C)C[C@H]3OC(=O)C(CNCCN(CC)CC)[C@H]3CC12 (stereo not given in full) | inconclusive: 20.6 µM [activator, single point] |  |
| CSCCC(NC(=O)c1ccco1)C(=O)Nc1ccc(C)cn1 (stereo not given) | inactive |  |
| O=S(=O)(Cc1ccccc1)Nc1cccc(Br)c1 | inconclusive: 29.1 µM [activator, single point] |  |
